Source: paper doi:10.1101/206383
Results are given in words; binding and its absence hold for the method and conditions named. In cells and extracts the contact can be indirect. Some binding calls cover weakened binding; strength is not graded here.

Amino acid sequences for entries named in this document (tags omitted). A change or cut given only in a name is not applied to a line headed by its entry.
UniProt Q80U70, whole entry: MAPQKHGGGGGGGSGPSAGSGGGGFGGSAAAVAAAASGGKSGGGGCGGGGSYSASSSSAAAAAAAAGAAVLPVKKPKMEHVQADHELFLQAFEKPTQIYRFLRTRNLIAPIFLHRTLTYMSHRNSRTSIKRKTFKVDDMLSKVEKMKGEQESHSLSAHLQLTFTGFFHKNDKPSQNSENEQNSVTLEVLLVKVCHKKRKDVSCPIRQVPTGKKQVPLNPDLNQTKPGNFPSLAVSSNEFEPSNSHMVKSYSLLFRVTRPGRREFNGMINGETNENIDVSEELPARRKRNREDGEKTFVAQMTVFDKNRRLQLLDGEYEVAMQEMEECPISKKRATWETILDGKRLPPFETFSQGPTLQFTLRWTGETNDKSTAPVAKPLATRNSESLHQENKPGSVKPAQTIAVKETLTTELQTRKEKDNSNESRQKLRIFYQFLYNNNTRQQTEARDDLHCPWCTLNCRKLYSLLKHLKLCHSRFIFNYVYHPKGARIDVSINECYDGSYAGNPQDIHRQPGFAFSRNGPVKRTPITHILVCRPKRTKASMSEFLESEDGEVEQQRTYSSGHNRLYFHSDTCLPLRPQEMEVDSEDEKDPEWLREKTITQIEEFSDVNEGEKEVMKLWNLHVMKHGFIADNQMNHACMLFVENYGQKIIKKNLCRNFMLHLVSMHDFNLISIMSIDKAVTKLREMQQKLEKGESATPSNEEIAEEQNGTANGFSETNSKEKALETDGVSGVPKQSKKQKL

What was measured:
Test in all cases: co-IP
[1] = molecular target: EZH2^P132S expressed from a lentiviral vector in EZH2-KO mESC (human) (UniProt Q15910)
[2] = molecular target: EZH2^D142V expressed from a lentiviral vector in EZH2-KO mESC (human) (UniProt Q15910)
[3] = molecular target: EZH2^WT expressed from a lentiviral vector in EZH2-KO mESC (human) (UniProt Q15910)
[4] = molecular target: EZH2^F145L expressed from a lentiviral vector in EZH2-KO mESC (human) (UniProt Q15910)

Measured: binding

SUZ12, endogenous in mESC (from UniProt Q80U70 1-741)
binds: all assays above

B1: Jarid2, endogenous in mESC (protein, UniProt Q62315 1-1234)
chain: MSKERPKRNIIQKKYDDSDGIPWSEERVVRKVLYLSLKEFKNAQKRQHGEGLAGSLKAVNGLLGNAQAKALGPASEQSENEKDDASQVSSTSNDVSSSDFEEGPSRKRPRLQAQRKFAQSQPNSPSTTPVKIVEPLLPPPATQISDLSKRKPKTEDFLTFLCLRGSPALPNSMVYFGSSQDEEDVEEEDDETEDVKATTNNASSSCQSTPRKGKTHKHVHNGHVFNGSSRSAREKEPAHKHRSKEATPGKEKHSEPRADSRREQASGAQPTAASAAASSAKGLAANHQPPPSHRSAQDLRKQVSKVNGVTRMSSLGAGTNSAKKIREVRPSPSKTVKYTATVTKGTVTYTKAKRELVKETKPNHHKPSSAVNHTISGKTESSNAKTRKQVLSLGGASKSTGPAASGLKASSRLNPKSCTKEVGGRQLREGLRNSKRRLEEAQQVDKPQSPPKKMKGVAGNAEAPGKKASAASGEKSLLNGHVKKEVPERSLERNRPKRAAAGKNMLGKQAHGKTEGTPCENRSTSQPESSHKPHDPQGKPEKGSGKSGWAAMDEIPVLRPSAKEFHDPLIYIESVRAQVEKYGMCRVIPPPDWRPECKLNDEMRFVTQIQHIHKLGRRWGPNVQRLACIKKHLRSQGITMDELPLIGGCELDLACFFRLINEMGGMQQVTDLKKWNKLADMLRIPKTAQDRLAKLQEAYCQYLLSYDSLSPEEHRRLEKEVLMEKEILEKRKGPLEGHTESDHHKFHSLPRFEPKNGLVHGVTPRNGFRSKLKEVGRAPLKTGRRRLFAQEKEVVKEEEEDKGVLNDFHKCIYKGRSVSLTTFYRTARNIMNMCFSKEPAPAEIEQEYWRLVEEKDCHVAVHCGKVDTNTHGSGFPVGKSEPFSRHGWNLTVLPNNTGSILRHLGAVPGVTIPWLNIGMVFSTSCWSRDQNHLPYIDYLHTGADCIWYCIPAEEENKLEDVVHTLLQGNGTPGLQMLESNVMISPEVLCKKGIKVHRTVQQSGQFVVCFPGSFVSKVCCGYNVSETVHFATTQWTSMGFETAKEMKRRHIAKPFSMEKLLYQIAQAEAKKENGPTLSTISALLDELRDTELRQRRLLFEAGLHSSARYGSHDGNSTVADGKKKPRKWLQLETSERRCQICQHLCYLSMVVQENENVVFCLECALRHVEKQKSCRGLKLMYRYDEEQIISLVNQICGKVSGKHGGIENCLNKPTPKRGPRKRATVDVPPSRLPSS
binds: all assays above

B2: Aebp2, endogenous in mESC (protein, UniProt Q9Z248 1-504)
chain: MAAALADMADLEELSRLSPLSPGSPGPAARGRAEPPEEEEEEDDEEAEAEAVAALLLNGGAGGGAGGGEAETMSEPSPESASQAGGDEDEDEEDDEDEGSSSGGAEEESSAESLVGSSSGGCSGDETRSLSPGAASSSSGDGDGKEGLEEPKGPRGGPGGPGSSGGGSSSSSVVSSGGDEGYGTGGGGSSATSGGRRGSLEMSSDGEPLSRMDSEDSISSTLMDIDSTISSGRSTPAMMNGQGSTTASSKHIAYNCCWDQCQACFNSSPDLADHIRSIHVDGQRGGVFVCLWKGCKVYNTPSTSQSWLQRHMLTHSGDKPFKCVVGGCNASFASQGGLARHVPTHFSQQNSSKVSSQPKAKEESPSKAGMNKRRKLKNKRRRSLPRPHDFFDAQTLDAIRHRAICFNLSAHIESLGKGHSVVFHSTVIAKRKEESGKIKLLLHWMPEDILPDVWVNESERHQLKTKVVHLSKLPKDTALLLDPNIYRTMPQKRLKRFDILNFPR
binds: all assays above
